Test results reported in PubChem BioAssay AID493014 (National Center for Advancing Translational Sciences (NCATS), 2011).
Some of the results follow. The main result of the screen is listed elsewhere. These columns were measured beside it and carry no call. Most of these compounds were active or inconclusive in the main read-out, so they are no random draw. Potencies come from curve fits of mixed quality, noted in brackets.

Test: qHTS Assay to Find Inhibitors of Chronic Active B-Cell Receptor Signaling
Settings: ABC-DLBCL IkBa-CBG/CBR reporter, luminescence ratio (green luciferase fused to IkBa over red control in TMD8 lymphoma cells), 4 h
Summary of the method: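 TMD8 human ABC-DLBCL cells with doxycycline-inducible IκBα–green luciferase fusion and unfused red luciferase, in 0.5% FBS medium; compounds up to 46 uM, 4 h at 37C. Green/red luminescence ratio, filter-overlap corrected, fitted to concentration-response curves.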

[1] = measured here: CBR red luminescence, cell number
[2] = measured here: IkBa-CBG green luminescence

CCOc1ccc(Oc2ccc(C(F)(F)F)cc2N)cc1
AC50 [1]: 23.1 µM [rising, partial curve]

Cc1cc(=O)n(-c2ccc(C(=O)O)cc2)[nH]1
AC50 [1]: 3.98 µM [falling, partial curve]

COc1ccc(NC(=O)Nc2ccc(C(C)C)cc2)cc1
AC50 [1]: 8.91 µM [falling, partial curve, poor fit]

C/C(=N\NC(=O)c1ccc([N+](=O)[O-])cc1)c1c(O)cc(C)oc1=O
AC50 [1]: 1.12 µM [rising, full curve, poor fit]

Cc1cc(C)c2cc(CN(Cc3ccco3)C(=O)NCc3ccccc3)c(=O)[nH]c2c1
AC50 [1]: 22.4 µM [falling, single point]

CN(C(=O)CSc1nnc(NC2CCCCC2)s1)C1CCS(=O)(=O)C1 (stereo not given)
AC50 [1]: 29.1 µM [rising, single point]

COc1ccc(C[C@@H]2CN3C(=NC[C@@H]3Cc3ccc(O)cc3)N2C[C@H](C)NC(=O)CCC2CCCCC2)cc1
AC50 [1]: 10 µM [falling, partial curve, poor fit]

O=C(O)c1cc(-c2ccccc2)nc2nc(N3CCCCC3)sc12
AC50 [1]: 8.91 µM [rising, partial curve]

COc1ccc(C(=O)c2cc([N+](=O)[O-])ccc2N2CCOCC2)cc1
AC50 [1]: 9.2 µM [rising, partial curve]
AC50 [2]: 5.8 µM [falling, partial curve]

OCCCNc1nnc(-c2ccccc2)c2ccccc12
AC50 [1]: 3.98 µM [rising, partial curve, poor fit]

O=C(NC1CC1)c1ccc2c(c1)N(Cc1ccc(Cl)cc1)CCS2
AC50 [1]: 35.5 µM [falling, single point]

O=c1cc(-c2ccccc2)nc2nc(SCc3ccccc3)[nH]n12
AC50 [1]: 5.17 µM [falling, full curve]

CCOc1ccc(NC(C)C(=O)N/N=C/c2cccs2)cc1 (stereo not given)
AC50 [1]: 29.1 µM [rising, single point]

Cc1ccccc1-n1c(SCC(=O)c2c(N)n(C)c(=O)n(C)c2=O)nc2sc3c(c2c1=O)CCCC3
AC50 [1]: 0.326 µM [rising, full curve, poor fit]

O=C(O)CSc1nnc(COc2cccc3ccccc23)o1
AC50 [1]: 35.5 µM [falling, single point]

CCOc1ccc(NC(=O)c2ccccc2SC)cc1
AC50 [1]: 3.16 µM [falling, full curve]

COc1cccc(OC)c1C(=O)Nc1ccc2c(c1)n(C)c(=O)n2C
AC50 [1]: 14.1 µM [rising, partial curve, poor fit]

COc1ccc(OC)c(NS(=O)(=O)c2ccc(N3CCCC3=O)cc2)c1
AC50 [1]: 11.2 µM [rising, partial curve, poor fit]
AC50 [2]: 11.2 µM [falling, partial curve]
